Measurements reported in publication PMC11041666.
These are yes or no findings as the source states them, for the method shown. In cells and extracts the contact can be indirect. Some binding calls cover weakened binding; strength is not graded here.

Protein sequences, listed by entry. Tags and fused reporters are not part of them.
UniProt Q0GNC1: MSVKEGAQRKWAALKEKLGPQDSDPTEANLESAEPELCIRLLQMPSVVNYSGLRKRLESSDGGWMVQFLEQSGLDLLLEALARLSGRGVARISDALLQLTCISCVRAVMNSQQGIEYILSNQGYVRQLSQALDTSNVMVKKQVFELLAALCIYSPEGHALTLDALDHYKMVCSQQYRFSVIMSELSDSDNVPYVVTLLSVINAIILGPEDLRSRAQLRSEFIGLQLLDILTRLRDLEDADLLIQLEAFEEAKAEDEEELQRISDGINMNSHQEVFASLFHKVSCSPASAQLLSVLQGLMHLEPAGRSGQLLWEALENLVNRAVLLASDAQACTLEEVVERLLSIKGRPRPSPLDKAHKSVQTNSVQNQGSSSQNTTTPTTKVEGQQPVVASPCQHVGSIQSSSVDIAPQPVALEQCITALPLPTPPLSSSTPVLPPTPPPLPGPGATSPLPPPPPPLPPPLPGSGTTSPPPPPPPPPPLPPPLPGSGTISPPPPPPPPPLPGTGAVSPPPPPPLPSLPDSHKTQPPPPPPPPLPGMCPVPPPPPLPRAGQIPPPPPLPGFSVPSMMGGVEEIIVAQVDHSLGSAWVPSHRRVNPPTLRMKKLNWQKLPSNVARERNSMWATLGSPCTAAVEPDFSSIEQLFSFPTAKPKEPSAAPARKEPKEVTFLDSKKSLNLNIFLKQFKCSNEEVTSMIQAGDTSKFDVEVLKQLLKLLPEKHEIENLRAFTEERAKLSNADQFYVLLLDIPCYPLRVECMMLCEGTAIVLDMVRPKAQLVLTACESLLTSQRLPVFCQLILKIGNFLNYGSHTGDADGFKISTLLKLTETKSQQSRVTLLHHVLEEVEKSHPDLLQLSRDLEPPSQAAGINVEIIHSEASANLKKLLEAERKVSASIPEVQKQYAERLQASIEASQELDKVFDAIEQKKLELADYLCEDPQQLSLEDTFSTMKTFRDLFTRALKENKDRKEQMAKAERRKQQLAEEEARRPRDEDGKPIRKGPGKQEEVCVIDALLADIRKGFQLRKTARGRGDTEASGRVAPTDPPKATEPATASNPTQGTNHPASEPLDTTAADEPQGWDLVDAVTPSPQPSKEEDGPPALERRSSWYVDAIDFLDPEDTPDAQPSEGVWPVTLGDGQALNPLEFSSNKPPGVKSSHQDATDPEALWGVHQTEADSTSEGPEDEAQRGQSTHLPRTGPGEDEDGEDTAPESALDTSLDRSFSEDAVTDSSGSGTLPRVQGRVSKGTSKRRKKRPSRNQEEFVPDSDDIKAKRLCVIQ
UniProt Q01815: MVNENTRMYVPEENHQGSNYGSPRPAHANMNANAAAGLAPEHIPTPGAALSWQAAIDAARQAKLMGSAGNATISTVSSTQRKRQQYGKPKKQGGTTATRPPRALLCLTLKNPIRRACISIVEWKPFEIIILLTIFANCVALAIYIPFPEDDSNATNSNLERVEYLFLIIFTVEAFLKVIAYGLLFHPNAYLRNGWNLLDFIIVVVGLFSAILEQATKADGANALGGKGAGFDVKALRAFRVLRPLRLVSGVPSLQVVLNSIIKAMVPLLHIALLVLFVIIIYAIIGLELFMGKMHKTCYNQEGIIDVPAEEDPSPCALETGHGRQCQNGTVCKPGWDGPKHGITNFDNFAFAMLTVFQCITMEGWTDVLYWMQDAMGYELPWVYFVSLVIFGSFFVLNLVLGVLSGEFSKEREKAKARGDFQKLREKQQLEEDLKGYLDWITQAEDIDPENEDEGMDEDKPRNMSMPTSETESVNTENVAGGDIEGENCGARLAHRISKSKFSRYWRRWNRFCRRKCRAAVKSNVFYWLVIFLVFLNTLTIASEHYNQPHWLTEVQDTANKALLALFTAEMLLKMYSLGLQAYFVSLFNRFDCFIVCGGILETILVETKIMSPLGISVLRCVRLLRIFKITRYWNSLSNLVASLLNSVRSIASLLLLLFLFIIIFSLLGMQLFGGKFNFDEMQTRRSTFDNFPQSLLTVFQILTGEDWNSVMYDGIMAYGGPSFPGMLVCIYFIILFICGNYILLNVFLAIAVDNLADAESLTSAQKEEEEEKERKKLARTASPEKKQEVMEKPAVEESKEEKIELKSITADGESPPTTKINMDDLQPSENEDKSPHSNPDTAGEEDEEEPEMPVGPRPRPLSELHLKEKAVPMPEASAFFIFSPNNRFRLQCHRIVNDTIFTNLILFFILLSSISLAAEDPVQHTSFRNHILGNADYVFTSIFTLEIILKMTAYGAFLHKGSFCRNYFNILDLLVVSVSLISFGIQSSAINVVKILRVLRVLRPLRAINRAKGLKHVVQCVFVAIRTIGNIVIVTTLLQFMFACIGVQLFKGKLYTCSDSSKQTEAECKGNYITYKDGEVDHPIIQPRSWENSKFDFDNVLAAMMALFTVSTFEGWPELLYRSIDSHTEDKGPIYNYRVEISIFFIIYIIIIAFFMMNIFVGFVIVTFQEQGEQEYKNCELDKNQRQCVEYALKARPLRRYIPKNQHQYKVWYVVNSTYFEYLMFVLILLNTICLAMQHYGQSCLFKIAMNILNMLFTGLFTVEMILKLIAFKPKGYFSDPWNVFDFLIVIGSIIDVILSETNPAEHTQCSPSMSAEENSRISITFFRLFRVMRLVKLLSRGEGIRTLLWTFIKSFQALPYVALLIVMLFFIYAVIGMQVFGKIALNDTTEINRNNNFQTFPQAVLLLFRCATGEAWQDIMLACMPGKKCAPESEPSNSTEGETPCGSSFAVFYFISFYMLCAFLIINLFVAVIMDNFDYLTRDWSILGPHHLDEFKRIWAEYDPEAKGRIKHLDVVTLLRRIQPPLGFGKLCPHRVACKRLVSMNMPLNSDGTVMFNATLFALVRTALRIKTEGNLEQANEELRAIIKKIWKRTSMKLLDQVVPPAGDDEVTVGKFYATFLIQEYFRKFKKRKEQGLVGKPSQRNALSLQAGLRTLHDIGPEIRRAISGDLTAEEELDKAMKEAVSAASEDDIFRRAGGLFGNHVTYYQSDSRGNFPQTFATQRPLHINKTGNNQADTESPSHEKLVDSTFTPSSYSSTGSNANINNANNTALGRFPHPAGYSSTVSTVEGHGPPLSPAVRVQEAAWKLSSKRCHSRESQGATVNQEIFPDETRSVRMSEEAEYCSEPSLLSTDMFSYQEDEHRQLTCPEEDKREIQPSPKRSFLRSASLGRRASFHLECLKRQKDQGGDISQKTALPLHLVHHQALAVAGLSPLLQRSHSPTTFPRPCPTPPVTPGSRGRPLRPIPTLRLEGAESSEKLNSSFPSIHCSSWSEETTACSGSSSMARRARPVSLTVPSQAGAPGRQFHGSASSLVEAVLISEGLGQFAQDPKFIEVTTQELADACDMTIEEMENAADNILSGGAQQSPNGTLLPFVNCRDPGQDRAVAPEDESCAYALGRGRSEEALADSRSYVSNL

Target: Inf2 (mouse (endogenous in murine cardiac tissue)) (UniProt Q0GNC1)
Assay: co-IP; IP of endogenous Inf2 (anti-Inf2, Bethyl A303-428A) from total mouse heart tissue lysate without membrane enrichment; western blot for Cacna1c

In the case of “Cacna1c (Cav1.2) (from UniProt Q01815 1-2139)”, the binding was “binds”.
